# Primary screen of a compound library

Chains of the proteins cited; added tags and fusions are not shown.
UniProt E9BF75, entry or part of it: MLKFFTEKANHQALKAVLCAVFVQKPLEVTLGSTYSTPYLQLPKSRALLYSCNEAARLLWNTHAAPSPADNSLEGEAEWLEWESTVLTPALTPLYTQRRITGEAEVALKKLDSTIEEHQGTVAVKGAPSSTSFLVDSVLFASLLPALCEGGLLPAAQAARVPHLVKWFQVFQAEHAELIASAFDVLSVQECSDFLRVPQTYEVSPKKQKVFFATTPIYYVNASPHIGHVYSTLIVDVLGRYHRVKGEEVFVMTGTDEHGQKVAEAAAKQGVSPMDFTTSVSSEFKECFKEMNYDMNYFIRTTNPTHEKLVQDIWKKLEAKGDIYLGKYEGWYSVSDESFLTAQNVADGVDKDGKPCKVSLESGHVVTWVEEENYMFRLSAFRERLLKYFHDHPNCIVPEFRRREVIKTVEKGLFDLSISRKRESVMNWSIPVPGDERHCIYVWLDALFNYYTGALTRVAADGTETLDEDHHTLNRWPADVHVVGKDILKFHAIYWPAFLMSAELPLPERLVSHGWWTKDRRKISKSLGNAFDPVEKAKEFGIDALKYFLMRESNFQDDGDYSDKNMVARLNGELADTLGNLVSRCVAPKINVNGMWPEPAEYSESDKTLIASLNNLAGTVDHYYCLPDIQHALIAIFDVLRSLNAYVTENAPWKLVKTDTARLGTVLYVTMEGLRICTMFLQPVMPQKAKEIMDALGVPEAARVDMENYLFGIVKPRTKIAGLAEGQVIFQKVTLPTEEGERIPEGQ

Source: ChEMBL document CHEMBL3988442, “University of Dundee, Small-Polar-MMV Screening Library” (2021).

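Methionyl-tRNA synthetase (putative), Leishmania donovani (UniProt E9BF75). Primary screen of methionyl-tRNA synthetase; the read-out is not stated. The test concentration is not given. Values are per cent inhibition. Size under these conditions: about 68,000 compounds, about 24 of them at 50% or above in at least one test.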

All values are in %. The record does not define 0% and 100%; most values in the screen are far below 50% and negative numbers occur (in some assays of this library far below -100). This is an unselected part of the compounds tested.

| # | structure | Inhibition |
|---|---|---|
| 1 | `Cc1cccc(CN2CC[C@@H]3[C@@H]2CCN3C(=O)Cc2ccsc2)n1` | 9.384 |
| 2 | `O=C(O)C1(n2ccc(-c3ccco3)n2)CCN(Cc2ccsc2)CC1` | 14.11 |
| 3 | `CN(CC(=O)NCC(CCO)c1ccccc1)C(=O)OC(C)(C)C` (configuration not stated) | 0.7092 |
| 4 | `CCC(=O)N1CCC2(CC1)COCCN2Cc1ccc(F)cc1` | 6.667 |
| 5 | `COCC(=O)N1CCC[C@]2(C(=O)N(C)C)CN(c3ccccn3)C[C@@H]2C1` | 13.81 |
| 6 | `Cc1ccc(N2CCC3(CCCN(C(=O)c4cnccn4)C3)C2)nn1` (configuration not stated) | 8.75 |
| 7 | `CCS(=O)(=O)CC(=O)Nc1ccc2oc(C3CC3)nc2c1` | 3.509 |
| 8 | `COc1cc2nc(NCc3scnc3C)nc(N)c2cc1OC` | 17.42 |
| 9 | `Fc1ccc(CNCc2cc(Br)c3c(c2)OCO3)cc1` | 6.301 |
| 10 | `CN(C)Cc1cnc2n1CCN(C(=O)NCc1ccccc1)CC2` | 11.96 |
| 11 | `CNc1cc(N2CCCC2CNCc2cccs2)ncn1` (configuration not stated) | 13.9 |
| 12 | `CC(C)[C@@H]1CN(CCOc2ccc(Cl)cc2)C[C@H]1NS(C)(=O)=O` | 8.974 |
| 13 | `Cc1cc(F)c(S(=O)(=O)NCc2ccnc(N(C)C)n2)cc1F` | 15.03 |
| 14 | `Cc1cnn(CCCNC(=O)N2CCCCC(N3CCCC3)C2)c1` (configuration not stated) | 15.31 |
| 15 | `CCc1csc(C2CCCN(C(=O)c3ccco3)C2)n1` (configuration not stated) | 2.564 |
| 16 | `CCN(CC)S(=O)(=O)c1ccc(CNC(=O)N2CCC(C#N)CC2)cc1` | 10.61 |
| 17 | `Cc1nc(C)n(CC2CCCN2Cc2nc3ccccc3c(=O)[nH]2)n1` (configuration not stated) | 2.006 |
| 18 | `CC(=O)NCc1cc2n(n1)CCN(Cc1cccc(Cl)c1F)C2` | 1.479 |
| 19 | `CCc1cccc(NC(=O)CNc2ccccc2OCCC(=O)OC)c1` | 18.23 |
| 20 | `CCOc1cc(CN(C)CCCO)ccc1OC(F)F` | 7.357 |
| 21 | `O=C(Cn1nc2ccccc2n1)N1CCCn2cncc2C1` | 14.83 |
| 22 | `COC(=O)[C@@H]1Cc2ncn(C)c2CN1S(=O)(=O)c1ccc(C)cc1` | 3.008 |
| 23 | `Cc1cccc2c1nc1n2[C@@H](CNC(=O)c2ccncc2)COC1` | 9.153 |
| 24 | `Cc1nc(CN(C)C2CCN(Cc3nc4c(F)cccc4[nH]3)C2)no1` (configuration not stated) | 8.709 |
| 25 | `O=C(c1cnccn1)N1CCC2(CC1)CCN(Cc1ccccn1)C2=O` | 2.5 |
| 26 | `CCC(NS(C)(=O)=O)c1ccccc1C` (configuration not stated) | 3.237 |
| 27 | `Cc1ccc(C2(CN3CCN(c4ncccn4)CC3)CCNCC2)nc1` | 17.03 |
| 28 | `CSCc1noc(Cn2ncn3cccc3c2=O)n1` | 2.198 |
| 29 | `C=Cc1cccc(CN(Cc2cnn(C)c2)C2CC2)c1` | 12.13 |
| 30 | `COc1ncccc1CNCc1c(C)nn(C)c1N1CCOCC1` | 16.57 |
| 31 | `CN(Cc1ccncn1)C(=O)c1cccc(CCC(C)(C)O)c1` | 11.17 |
| 32 | `CN(Cc1cnn(C)c1)C(=O)Cn1c(CS(C)(=O)=O)nc2ccccc21` | 11.27 |
| 33 | `CC(=O)N1CCCN(C(=O)c2cnc(OC(C)C)c(Cl)c2)CC1` | 16.43 |
| 34 | `O=C(CCc1ccc(Br)cc1F)NS(=O)(=O)c1ccc2c(c1)OCCO2` | 9.028 |
| 35 | `CN(C)Cc1ccnc(C2CCCN2Cc2cccc(F)c2F)n1` (configuration not stated) | 23.16 |
| 36 | `CCc1nccn1CCC(=O)N1C[C@H]2CC[C@@H]1CN(C(=O)N(C)C)C2` | 11.56 |
| 37 | `CC(=O)N1CCC2(C1)CN(C(=O)C1CCOC1)C2` (configuration not stated) | 8.964 |
| 38 | `O=C(NCCOc1cccc(Cl)c1Cl)N1CCC2(CC1)OCCO2` | 6.425 |
| 39 | `FC(F)(F)c1ccnc(N2C[C@H]3CCN(c4cccnc4)C[C@H]3C2)n1` | 18.16 |
| 40 | `Cc1cc(C(=O)N2CCCC2)ccc1NCCOCC(F)(F)F` | 0.8287 |
| 41 | `c1ccc(COCC2CN(Cc3ccsc3)Cc3nccn3C2)nc1` (configuration not stated) | 1.333 |
| 42 | `CCS(=O)(=O)N1CCC(NC(=O)c2cc(C)ccc2O)CC1` | 14.21 |
| 43 | `CC(C(=O)NCCc1cccs1)N1CCC(n2ccnc2)CC1` (configuration not stated) | 4.53 |
| 44 | `CC(C)n1ccnc1CN1CCCN(C(=O)c2cnn(C)c2)CC1` | 11.22 |
| 45 | `COCCC(=O)NCc1ccc(-c2ncncc2C(=O)N(C)C)cc1` | 8.14 |
| 46 | `CC(=O)NCC1CCC2(CCN(c3ncc(C)cn3)CC2)O1` (configuration not stated) | 21.25 |
| 47 | `Cc1ccc(-n2cc(CN3CCOCC3)c(-c3cccc(C)c3)n2)cc1` | 17.91 |
| 48 | `O=S(=O)(NCCN1CC=CC1)c1ccc(Cl)cc1` | 17.25 |
| 49 | `O=C(c1ccccn1)N1C[C@@H](OCc2cccnc2)[C@H]2OCCC[C@@H]21` | 7.843 |
| 50 | `O=C(NC1CC1)c1cc(NC(=O)N2CCCC2)ccc1Cl` | 18.73 |
| 51 | `CNC(=O)Cc1ccc(NC(=O)NCc2nc(C)sc2C)cc1` | 6.991 |
| 52 | `O=C(NCC1CC1)C1CCC2(CCN(C(=O)c3ccoc3)CC2)O1` (configuration not stated) | 6.09 |
| 53 | `Cc1cccc(S(=O)(=O)NCC(C)(C)CC(C)O)c1C#N` (configuration not stated) | 12.78 |
| 54 | `Cc1cc(F)ccc1S(=O)(=O)N1C[C@@H](C)[C@@](C)(O)C1` | 11.45 |
| 55 | `Cc1ccccc1C(CNc1ncnc2c1CCNCC2)N(C)C` (configuration not stated) | 19.77 |
| 56 | `COc1ccc(Cl)cc1CC(=O)N1CCN(CC(C)O)CC1` (configuration not stated) | 20.22 |
| 57 | `Cc1ncsc1C(=O)N1CCCC(c2noc(C(C)C)n2)C1` (configuration not stated) | 10.62 |

The first 5 entries again:

* Cc1cccc(CN2CC[C@@H]3[C@@H]2CCN3C(=O)Cc2ccsc2)n1 : 9.384%
* O=C(O)C1(n2ccc(-c3ccco3)n2)CCN(Cc2ccsc2)CC1 : 14.11%
* CN(CC(=O)NCC(CCO)c1ccccc1)C(=O)OC(C)(C)C (configuration not stated) : 0.7092%
* CCC(=O)N1CCC2(CC1)COCCN2Cc1ccc(F)cc1 : 6.667%
* COCC(=O)N1CCC[C@]2(C(=O)N(C)C)CN(c3ccccn3)C[C@@H]2C1 : 13.81%